Measurements reported in PubChem BioAssay AID686937 (Drosophila RNAi Screening Center, 2013).

Aim: 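Genes whose loss weakens secretory pathway function in fly cells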 (primary screen)
Cells: Drosophila S2 cells expressing secreted horseradish peroxidase
Reagent: long dsRNA against Drosophila genes
Timing: about 5.5 days (5 days dsRNA, then 12 h reporter induction)
Challenge: reporter expression induced after 5 days of dsRNA, read 12 h later; inducer not stated
Measured: 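Chemiluminescent measurement of peroxidase in the medium 12 h after reporter induction, following 5 days of dsRNA, given as a z-score per plate; higher means more secretion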
Reading the numbers: z-score: higher = more reporter secreted into medium
The screen tested about 23,000 reagents; this is a random part of those with a known target gene and a result. 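Reduced-secretion tags in replicate 1 do not always agree with the z-scores; no criterion for assigning the tags was given.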 A plus sign joins genes that one reagent is predicted to hit. No sequences are given here. The record does not give: the amount of reagent.

Gene | amplicon | z-score, replicate 1 | z-score, replicate 2 | z-score, replicate 3 | z-score, replicate 4 | phenotype, replicate 1
CG34445 | DRSC22404 | -0.78 | -0.55 | – | – | –
C15 | DRSC13495 | 0.28 | -1.12 | – | – | –
C15 | DRSC14169 | -1.59 | -0.4 | – | – | reduced secretion
Glyp | DRSC00752 | 0.62 | -1.18 | – | – | –
CG33557 | DRSC17854 | 0.21 | 0.24 | – | – | –
otu | DRSC18811 | 0.34 | 0.55 | – | – | –
Est-P | DRSC11163 | 0.13 | 0.12 | – | – | –
scpr-A + scpr-C + scpr-B | DRSC15715 | 0.38 | 0.34 | – | – | –
CG5070 | DRSC19932 | 0.16 | 0.12 | – | – | –
Atg4a | DRSC00656 | 0.25 | 0.19 | – | – | –
CG34459 | DRSC06973 | 0.06 | 0.06 | – | – | –
eRF1 | DRSC11779 | -0.88 | -1.49 | – | – | –
CG15120 | DRSC06542 | 0.35 | 0.13 | – | – | –
CG14369 | DRSC14831 | 0.47 | 0.08 | – | – | –
MtnD | DRSC22733 | 0.09 | -0.17 | – | – | –
CG8031 | DRSC16364 | 0.47 | 0.31 | – | – | –
CG7173 | DRSC11812 | -1.33 | -0.37 | – | – | –
ste24a | DRSC07314 | -0.2 | 0.23 | – | – | –
CG6614 | DRSC02974 | -6.72 | 0.25 | – | – | reduced secretion
Ptx1 | DRSC16804 | 0.03 | 0.27 | – | – | –
Cse1 | DRSC03287 | -0.66 | -1.15 | 0.25 | -0.83 | –
g | DRSC20335 | -0.9 | -0.2 | – | – | –
CG3085 | DRSC04335 | 0.22 | 0.42 | – | – | –
Zip102B | DRSC17155 | 0.05 | 0.09 | -0.15 | 0.12 | –
GatC + PolG2 | DRSC03312 | 0.08 | 0.19 | – | – | –
mei-217 + mei-218 | DRSC20349 | 0.05 | 0.24 | – | – | –
CycE | DRSC03295 | -1.41 | -1.2 | – | – | –
CycE | DRSC03296 | -2.4 | -3.8 | – | – | reduced secretion
SmF | DRSC07397 | -2.5 | -4.14 | – | – | reduced secretion
vis + achi | DRSC07277 | 0.3 | 0.46 | – | – | –
side-VII | DRSC14578 | 0.38 | 0.49 | – | – | –
Vamp7 | DRSC06599 | 0.01 | 0.33 | – | – | –
Ir41a | DRSC04730 | 0.25 | – | – | – | –
Ir41a | DRSC04875 | 0.4 | 0.27 | – | – | –
CG4942 | DRSC10462 | 0.31 | 0.24 | – | – | –
Oct-TyrR | DRSC11883 | 0.07 | 0.02 | – | – | –
Pxn | DRSC08685 | -0.88 | 0.06 | 0.31 | -0.55 | reduced secretion
Naxe | DRSC18251 | 0.17 | 0.29 | – | – | –
CG13581 | DRSC04216 | 0.31 | 0.22 | – | – | –
CG9458 | DRSC16495 | -0.01 | 0.5 | – | – | –
CG5863 | DRSC15898 | -0.14 | 0.04 | – | – | –
Jon74E | DRSC10617 | 0.25 | 0.25 | – | – | –

As entered above:
Result of CG8031 [DRSC16364] in “z-score, replicate 2”: 0.31
CycE [DRSC03296], z-score, replicate 1: -2.4
Result of MtnD [DRSC22733] under “z-score, replicate 2”: -0.17
Under “phenotype, replicate 1”, CG6614 [DRSC02974] is entered as reduced secretion
Glyp [DRSC00752], z-score, replicate 2: -1.18
Under “z-score, replicate 2”, Ir41a [DRSC04875] has 0.27

More reagents:
Gene | amplicon | z-score, replicate 1 | z-score, replicate 2 | z-score, replicate 3 | z-score, replicate 4 | phenotype, replicate 1
ATPsynF | DRSC04482 | -0.22 | -0.46 | – | – | –
Spn28Dc | DRSC03029 | -0.02 | -0.01 | – | – | –
CG13924 | DRSC08393 | 0.4 | 0.33 | – | – | –
CG33080 | DRSC18080 | 0.38 | 0.44 | – | – | –
CG33080 | DRSC18081 | 0.38 | 0.41 | – | – | –
CG33080 | DRSC18285 | 0.26 | 0.43 | – | – | –
TwdlB | DRSC16050 | 0.5 | 0.62 | – | – | –
Mdh1 | DRSC02846 | -0.03 | 0.12 | – | – | –
CG15011 | DRSC08464 | 0.45 | 0.38 | – | – | –
tio | DRSC03739 | 0.36 | 0.22 | – | – | –
CG12516 | DRSC14524 | 0.36 | 0.12 | – | – | –
botv | DRSC05949 | 0.57 | 0.39 | – | – | –
CG31041 | DRSC13951 | 0.34 | 0.02 | – | – | –
CG31249 | DRSC16248 | 0.51 | 0.46 | – | – | –
eIF4E7 | DRSC17782 | 0.35 | 0.49 | – | – | –
eIF4E7 | DRSC18623 | -3.1 | 0.3 | – | – | reduced secretion
CG33288 | DRSC11484 | 0.84 | 0.35 | – | – | –
Sbf | DRSC16852 | 0.36 | 0.47 | – | – | –
Ser7 | DRSC18201 | 0.43 | 0.52 | – | – | –
pk | DRSC06178 | 0.46 | 0.48 | – | – | –
pk | DRSC07664 | 0.55 | 0.62 | – | – | –
pk | DRSC22156 | -0.63 | 0.32 | – | – | –
CAH3 | DRSC17776 | 0 | 0.38 | – | – | –
CG14218 | DRSC19575 | 0.57 | 0.15 | 0.19 | -0.22 | –
lov | DRSC04665 | 0.47 | 0.36 | 0.68 | 0.67 | –
Tsp86D | DRSC15607 | 0.31 | 0.63 | – | – | –
mr | DRSC04332 | -0.02 | 0.26 | – | – | –
mr | DRSC22856 | 0.1 | -0.12 | – | – | –
CG18469 | DRSC21838 | 0.29 | 0.36 | – | – | –
CG3419 (retired record) | DRSC04368 | 0.15 | 0.14 | – | – | –
CG3419 (retired record) | DRSC04369 | 0.1 | 0.18 | – | – | –
CG43066 | DRSC06927 | -1.83 | 0.33 | 0.3 | -0.1 | –
CG10694 | DRSC14263 | 0.4 | 0.37 | – | – | –
Fim | DRSC20243 | 0.26 | 0.28 | – | – | –
CG31821 | DRSC22162 | -0.31 | -0.03 | – | – | –
CG15576 | DRSC18064 | 0.33 | -0.15 | – | – | –
Aladin | DRSC18121 | 0.31 | 0.52 | – | – | –
Ilp6 | DRSC17906 | -6.47 | 0.39 | – | – | –
Ced-12 | DRSC02840 | 0.57 | 0.39 | – | – | –
TAF1B | DRSC16001 | 0.47 | 0.51 | – | – | –
dac | DRSC03518 | 0.49 | 0.31 | – | – | –
CG13014 | DRSC19533 | 0.1 | 0.1 | – | – | –
nop5 | DRSC03582 | -0.23 | -0.09 | – | – | –
CG7882 | DRSC04899 | 0.43 | 0.41 | – | – | –
Or71a | DRSC11244 | 0.14 | 0.34 | – | – | –
Reg-5 | DRSC04647 | 0.49 | 0.29 | – | – | –
CG2061 | DRSC19348 | 0.36 | 0.54 | – | – | –
blo | DRSC05937 | 0.46 | 0.41 | – | – | –
CG32246 | DRSC08115 | 0.32 | 0.07 | – | – | –
ND-42 | DRSC16754 | 0.17 | 0.02 | – | – | –
wkd | DRSC15777 | 0.27 | 0.19 | – | – | –
Mst57Dc | DRSC16745 | 0.41 | 0.49 | – | – | –
Sans | DRSC06357 | 0.07 | 0.44 | – | – | –
acs | DRSC08185 | 0.32 | 0.43 | – | – | –
CG5386 | DRSC15788 | -0.51 | -0.28 | – | – | –
Alg3 | DRSC04700 | -0.06 | 0.11 | – | – | –
Acox57D-d | DRSC04561 | 0.26 | 0.15 | – | – | –
GstE9 | DRSC06679 | 0.22 | 0.17 | – | – | –
CG3008 | DRSC00560 | 0.19 | 0.28 | – | – | –
CG32182 | DRSC09508 | 0.2 | 0.35 | – | – | –
CG34008 | DRSC13428 | 0.37 | 0.03 | – | – | –
CG5478 | DRSC15814 | 0.45 | 0.28 | – | – | –
